Measured values reported in patent US11434299 (TENEOBIO, dated 2022).
Results are given in words; binding and its absence hold for the method and conditions named. Some results given as binding are weak or reduced against the parent protein; the word gives no strength.

Sequences of proteins named here, by UniProt entry; tags and fusion partners are left off.
UniProt Q02223: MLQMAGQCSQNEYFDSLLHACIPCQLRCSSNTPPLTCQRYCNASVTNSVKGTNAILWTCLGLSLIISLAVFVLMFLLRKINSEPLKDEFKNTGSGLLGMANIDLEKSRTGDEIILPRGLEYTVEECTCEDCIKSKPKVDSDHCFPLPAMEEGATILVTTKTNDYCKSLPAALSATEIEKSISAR

B1: SEQ ID NO 25 (antibody, V domains shown)
VH: EVQLLESGGGLVQPGGSLRLSCAASGFTFSSYAMNWVRQAPGKGLEWVSGITGSGGTTYYADSVKGRFTISRDNSKNTLYLQMNSLRAEDTAVYYCVKDWNTTMITERGQGTLVTVSS
B2: SEQ ID NO 26 (antibody, V domains shown)
VH: B1 VH

Biological target: human BCMA (B-Cell Maturation Antigen) on NCI-H929 cells (human) (UniProt Q02223)
Experiment: flow cytometry, HEK supernatants on NCI-H929 cells (BCMA+)

| Binder | binding |
| --- | --- |
| B1 | binds |
| B2 | binds |
